Measured values taken from US20240336934A1, “CRISPR/CAS9-BASED COMPOSITIONS AND METHODS FOR TREATING RETINAL DEGENERATIONS” (The Johns Hopkins University, priority 2016, published 2024).
At least one structure is not confirmed: it was looked up by name or label, or the drawing left a doubt.

Test system: hESC-derived RGCs
Assay: Survival of hESC-derived RGCs after colchicine challenge
Type: cell-based, human
Conditions: two days after colchicine (1 μM), increasing doses
Method: FIG. 69A depicts survival (±SD) of hESC-derived RGCs two days after a challenge with vehicle or colchicine (1 μM) in the presence of the DLK/LZK inhibitors tozasertib (1 μM), Genentech inhibitor 123 (0.1 μM) or a vehicle control. FIG. 69B depicts survival (±SD) of hESC-derived RGCs two days after a challenge with colchicine (1 μM) in the presence of increasing doses of sunitinib.

CCN(CC)CCNC(=O)c1c(C)[nH]c(/C=C2\C(=O)Nc3ccc(F)cc32)c1C [sunitinib]
survival of hESC-derived RGCs: promotes the survival of human ESC-derived RGCs
